{
  "source": "patent US20050112064A1",
  "about": "(priority 2003, published 2005)",
  "test_system": "T1, P3W (engrailed HTH / consensus EF-hand chimeric peptide) (synthetic construct)",
  "T1 sequence": "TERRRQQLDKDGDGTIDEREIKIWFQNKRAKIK",
  "test": "binding assay",
  "conditions": "Gd(III) complex; relaxivity r1 at 60 MHz 21.2 to 42.4 mM-1 s-1 and at 20 MHz 16.2 to 29.6 with 1 equiv DNA; 50 mM HEPES pH 7.4, 37 C; reversed by excess NaCl; synthetic protein",
  "note": "Construct, isoform or probe ends are uncertain for at least one entry. Tags and fusion partners may be left off the protein sequences shown.",
  "data": [
    {"sequence": "GAGCTAATTAGCTC (double strand) [14-mer self-complementary duplex]", "values": [
      {"measurement": "binding result", "value": "binds"}
    ]}
  ]
}
